## Screening data

Data taken from PubChem BioAssay AID1224904, deposited by Broad Institute (2016).

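293T-iDUX4 cells carrying a ZSCAN4-driven Gaussia luciferase and a tet-on Italica luciferase control; the gap between the two luminescence signals is read after 24 h. The test concentration is not given here. Percent difference between the Gaussia and Italica channels; more negative values mean more selective suppression of the DUX4 reporter, and higher values mean less activity.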

Values are in %. The controls that fix the scale are not given here. Common to all entries: measured here: selective DUX4 reporter inhibition. Part of the compounds only, not a random draw; the main read-out is not listed here.

With Cc1ccccc1S(=O)(=O)N1CCCCN2[C@H](CO)[C@H](c3ccc(-c4cccc(F)c4)cc3)[C@H]2C1 the assay gave Gaussia minus Italica difference -15.75%. For COc1ccccc1S(=O)(=O)N(C)C[C@@H]1Oc2ncc(-c3ccc(C)cc3)cc2C(=O)N([C@@H](C)CO)C[C@H]1C the result was Gaussia minus Italica difference 15.18%. COc1cccc(S(=O)(=O)Nc2ccc3c(c2)C(=O)N(C)C[C@@H](OC)[C@@H](C)CN(Cc2ccccc2F)[C@H](C)CO3)c1 read Gaussia minus Italica difference -7.228%. CC(C)NC(=O)N1CCCCN2[C@H](CO)[C@@H](c3ccc(C#Cc4ccccc4F)cc3)[C@@H]2C1 gave Gaussia minus Italica difference -0.075%. For N#Cc1ccc(-c2ccc3c(c2)[C@H]2[C@H](CCN2S(=O)(=O)c2ccccc2F)[C@@H](CO)N3)cc1 the result was Gaussia minus Italica difference -5.099%. O=C(Cc1ccncc1)N1CC[C@@H]2[C@H]1c1cc(-c3ccccc3F)ccc1N[C@@H]2CO read Gaussia minus Italica difference -11.34%. O=C(C[C@@H]1CC[C@H]2[C@@H](COC[C@@H](O)CN2S(=O)(=O)c2ccc(F)cc2)O1)NCc1ccc(Cl)c(Cl)c1 gave Gaussia minus Italica difference -15.18%.

O=C(C[C@H]1CC[C@@H]2[C@H](COC[C@@H](O)CN2S(=O)(=O)c2cccc(Cl)c2)O1)Nc1ccc(-c2ccccc2)cc1 gave Gaussia minus Italica difference 0.4278%. With O=C(c1ccc2c(c1)OCO2)N1CC(=O)N2[C@H](CO)[C@@H](c3ccc(C#CC4CCCC4)cc3)[C@H]2C1 the assay gave Gaussia minus Italica difference -1.144%. Result for Cc1cccc(S(=O)(=O)N2CC[C@@H]3[C@@H](CO)Nc4ccc(C#Cc5cccnc5)cc4[C@@H]32)c1 was Gaussia minus Italica difference -3.424%. Result for O=S(=O)(c1ccccc1)N1C[C@@H]2N[C@H](C1)C2c1ccc(-c2ccc(F)cc2)cc1 (stereo partly shown) was Gaussia minus Italica difference -19.94%. N#Cc1cccc(-c2ccc3c(c2)[C@H]2[C@H](CCN2Cc2ccc4c(c2)OCO4)[C@H](CO)N3)c1 read Gaussia minus Italica difference -24.88%. With COc1ccc2c3c([nH]c2c1)[C@H](CO)N(C(=O)Nc1ccc(F)cc1)CC31CN(Cc2ccccc2OC)C1 the assay gave Gaussia minus Italica difference 1.308%. With CO[C@@H]1CN(C)C(=O)c2ccc(NC(=O)NC(C)C)cc2OC[C@@H](C)N(Cc2ccc(-c3ccccn3)cc2)C[C@H]1C the assay gave Gaussia minus Italica difference -10.35%.

Result for O=C(NCc1ccccc1)[C@H]1[C@H](CO)[C@H]2Cn3c(ccc(/C=C/c4ccccc4)c3=O)[C@@H]1N2CC1CC1 was Gaussia minus Italica difference -8.824%. COc1cccc(-c2ccc3c(c2)[C@H]2[C@H](CCN2S(=O)(=O)c2ccccc2OC)[C@@H](CO)N3)c1 gave Gaussia minus Italica difference 38.31%. COc1ccc2c3c(n(C)c2c1)[C@H](CO)N(Cc1ccccc1)CC31CN(S(=O)(=O)c2ccc(C)cc2)C1 read Gaussia minus Italica difference -2.938%. With O=C1CN(S(=O)(=O)Cc2ccccc2)C[C@H]2[C@@H](c3ccc(C#Cc4ccccc4)cc3)[C@H](CO)N12 the assay gave Gaussia minus Italica difference -7.592%. For COc1ccc(-c2ccc3c(c2)[C@@H]2[C@@H](CCN2C(=O)c2ccc4c(c2)OCO4)[C@H](CO)N3)cc1 the result was Gaussia minus Italica difference 6.649%. With C[C@@H](NC(=O)C[C@H]1CC[C@H]2[C@@H](COC[C@@H](O)CN2C(=O)Nc2cccc(F)c2)O1)c1ccccc1 the assay gave Gaussia minus Italica difference -19.63%. Result for C[C@H]1CN([C@@H](C)CO)C(=O)c2c(c3ccccc3n2C)-c2ccccc2CO[C@H]1CN(C)S(=O)(=O)c1ccc(Cl)cc1 was Gaussia minus Italica difference 8.941%.

O=C(c1cccc(F)c1)N1CC(=O)N2[C@@H](CO)[C@@H](c3ccc(C#Cc4ccc(F)cc4)cc3)[C@@H]2C1 read Gaussia minus Italica difference 1.166%. CC(C)OC(=O)N(C)C[C@H]1OCc2ccccc2-c2ccccc2C(=O)N([C@@H](C)CO)C[C@H]1C gave Gaussia minus Italica difference -12.33%. N#Cc1ccc(-c2ccc3c(c2)[C@H]2[C@H](CCN2C(=O)c2ccncc2)[C@H](CO)N3)cc1 gave Gaussia minus Italica difference 3.567%. With O=C(Nc1ccc2c(c1)[C@H]1C[C@H](CC(=O)N3CCc4ccccc4C3)O[C@H](CO)[C@H]1O2)NC1CCCC1 the assay gave Gaussia minus Italica difference -1.174%. Result for N#Cc1cccc(-c2ccc([C@@H]3[C@H]4CN(Cc5ccccc5F)CCCCN4[C@H]3CO)cc2)c1 was Gaussia minus Italica difference -7.694%. For O=C(C[C@H]1CC[C@H]2[C@@H](COC[C@H](O)CN2Cc2ccc(Oc3ccccc3)cc2)O1)N1CCCCC1 the result was Gaussia minus Italica difference -8.274%. COc1cccc(-c2ccc([C@H]3[C@H]4CN(S(=O)(=O)c5cccs5)CCCCN4[C@H]3CO)cc2)c1 read Gaussia minus Italica difference 1.606%.

COc1ccccc1-c1ccc([C@H]2[C@H](CO)N3CCCCN(C(=O)NC4CCCC4)C[C@@H]23)cc1 gave Gaussia minus Italica difference -5.32%. For C/C=C/c1ccc([C@H]2[C@@H](CO)N3CCCCN(C(=O)Nc4cc(F)ccc4F)C[C@H]23)cc1 the result was Gaussia minus Italica difference -16.16%. With COCC(=O)N1CC2(C1)CN(Cc1cc(F)ccc1F)[C@@H](CO)c1[nH]c3cc(OC)ccc3c12 the assay gave Gaussia minus Italica difference -1.178%. CCCNC(=O)N1CC2(CCN(Cc3cccc(OC)c3)CC2)c2c(n(C)c3cc(OC)ccc23)[C@@H]1CO gave Gaussia minus Italica difference 22.66%. COc1cccc(C#Cc2ccc([C@@H]3[C@H]4CN(C(=O)c5ccccc5)CC(=O)N4[C@H]3CO)cc2)c1 gave Gaussia minus Italica difference 1.11%. Result for OC[C@@H]1[C@@H](c2ccc(-c3cccc(F)c3)cc2)[C@@H]2CN(CCC(F)(F)F)CCCCN12 was Gaussia minus Italica difference -18.87%. For O=C(Nc1ccccc1F)N1CCCCN2[C@H](C1)[C@@H](c1ccc(/C=C/c3ccccc3)cc1)[C@@H]2CO the result was Gaussia minus Italica difference -6.236%.

CCS(=O)(=O)N1CC2(CN(Cc3ccccc3)[C@H](CO)c3c2c2ccc(OC)cc2n3C)C1 gave Gaussia minus Italica difference -12.94%. With COCC(=O)N1CC[C@@H]2[C@H](CO)Nc3ccc(C#Cc4cccc(F)c4)cc3[C@@H]21 the assay gave Gaussia minus Italica difference -9.364%.

Some entries from above, unchanged:

Result for O=C(C[C@H]1CC[C@H]2[C@@H](COC[C@H](O)CN2Cc2ccc(Oc3ccccc3)cc2)O1)N1CCCCC1 was Gaussia minus Italica difference -8.274%.
Result for COc1ccc2c3c(n(C)c2c1)[C@H](CO)N(Cc1ccccc1)CC31CN(S(=O)(=O)c2ccc(C)cc2)C1 was Gaussia minus Italica difference -2.938%.